The values below come from article PMC6549186.

Protein sequences, listed by entry. Tags and fused reporters are not part of them. Residues count along the entry.
UniProt Q15125, residues 2-230: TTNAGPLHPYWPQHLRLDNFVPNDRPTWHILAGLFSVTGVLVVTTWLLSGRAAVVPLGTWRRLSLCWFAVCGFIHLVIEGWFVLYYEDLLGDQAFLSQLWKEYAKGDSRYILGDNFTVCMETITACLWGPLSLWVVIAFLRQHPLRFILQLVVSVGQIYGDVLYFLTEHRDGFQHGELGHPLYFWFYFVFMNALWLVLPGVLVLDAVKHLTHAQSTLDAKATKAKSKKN

The target of the assay is human EBP, co-expressed as N-terminal His-tag EBP and N-terminal Strep-tag EBP (human) (UniProt Q15125). Description: pull-down; His-EBP and Strep-EBP co-expressed in HEK-293S GnTI- cells; purified on Strep-Tactin column and by gel filtration; incubated with Strep-Tactin Sepharose at 4 °C for 2 h; Western blot with anti-His or anti-Strep.

No constants are given. Whether binding was seen depends on the method and setting. In cells and extracts the contact can be indirect. Some results given as binding are weak or reduced against the parent protein; the word gives no strength.

Regarding “human EBP, co-expressed as N-terminal His-tag EBP and N-terminal Strep-tag EBP (from UniProt Q15125 2-230) (enzyme)”, the binding result is “binds”.
